Experimental data from article PMC7662523, “Evaluation of Polyhedral Oligomeric Silsesquioxane Porphyrin Derivatives on Photodynamic Therapy” (Molecules, 2020).

Assay: Singlet oxygen quantum yield, indirect method with DMA as 1O2 probe in DMF
Format: physicochemical
Conditions: versus parent porphyrin (ATPP, TAPP or compound 6)
Protocol: The ^1O2 quantum yield (ΦΔ) of the POSSP compounds in dimethyl formamide (DMF) was indirectly determined using 9,10-dimethylanthracene (DMA) as ^1O2 probe. DMA reacts with ^1O2, undergoing a 1,4-cycloaddition that is detected as a decrease in the intensity of the DMA absorption band at 379 nm.
The ^1O2 quantum yields (ΦΔ) were determined through an indirect method using dimethylanthracence (DMA) as the singlet oxygen probe. Several solutions containing DMF were air saturated and prepared with DMA (50 μM) and the POSSPs or parent porphyrins (TPP, ATPP, TAPP and compound 6) (5 μM). These solutions were covered with aluminum foil to avoid any premature quenching. Quartz cuvettes (1 cm × 1 cm) were filled with 1 mL of the solution, placed in a spectrofluorophotometer (xenon lamp, Shimadzu RF-5301 PC) and irradiated at 515 nm for 600 s. The absorbance decay of DMA was monitored at 380 nm, which was corrected from light scattering by subtracting the spectra of POSSPs. The ΦΔ was calculated using Equation (2). Φ∆,S = Φ∆,R (mSample/mRerefence) (1−10^−absReference/1−10^−absSample)(2) where Φ∆,S is the singlet oxygen quantum yield of the sample and m is the slope of the plotted data relative to the area of the emission peak against the absorption of the reference.

Compared with O=C(NCCC[Si]12O[Si]3(c4ccccc4)O[Si]4(c5ccccc5)O[Si](c5ccccc5)(O1)O[Si]1(c5ccccc5)O[Si](c5ccccc5)(O2)O[Si](c2ccccc2)(O3)O[Si](c2ccccc2)(O4)O1)Nc1ccc(-c2c3nc(c(-c4ccccc4)c4ccc([nH]4)c(-c4ccccc4)c4nc(c(-c5ccccc5)c5ccc2[nH]5)C=C4)C=C3)cc1 [POSSP 2], CC(C)C[Si]12O[Si]3(CCCNC(=O)Nc4ccc(-c5c6nc(c(-c7ccccc7)c7ccc([nH]7)c(-c7ccccc7)c7nc(c(-c8ccccc8)c8ccc5[nH]8)C=C7)C=C6)cc4)O[Si]4(CC(C)C)O[Si](CC(C)C)(O1)O[Si]1(CC(C)C)O[Si](CC(C)C)(O2)O[Si](CC(C)C)(O3)O[Si](CC(C)C)(O4)O1 [POSSP 1] is higher in “increase in the ΦΔ value compared with the parent porphyrin” value: 33% for the first, 82% for the second.

With NCCC[Si]12O[Si]3(CCCN)O[Si]4(CCCN)O[Si](CCCN)(O1)O[Si]1(CCCN)O[Si](CCCN)(O2)O[Si](CCCN)(O3)O[Si](CCCNC(=O)c2ccc(-c3c5nc(c(-c6ccccc6)c6ccc([nH]6)c(-c6ccccc6)c6nc(c(-c7ccccc7)c7ccc3[nH]7)C=C6)C=C5)cc2)(O4)O1 [POSSP 4] the “increase in the ΦΔ value compared with the parent porphyrin” value was 9%.
